Source: patent US10112913B2, “Substituted [1,2,4]triazole and imidazole compounds as fungicides” (BASF SE, priority 2014, dated 2018)
Some results were stated once for a whole list of compounds, not compound by compound. At least one compound was matched to its structure with a doubt left.

What follows are compounds tested on Septoria tritici (assay: Activity against leaf blotch on wheat caused by Septoria tritici (Septtr), microtiter test). Details: 31 ppm; Septoria tritici spore suspension; 18° C.; 405 nm, 7 days after inoculation.
Assay type: cell-based

SMILES	growth (relative growth of the pathogen vs active compound-free control = 100%) [%]
OC(Cn1cncn1)(c1ccc(C#CBr)cc1Cl)C1CC1 (stereo not drawn) [Compound I-23]	≤ 20
COCC#Cc1ccc(C(C)(O)Cn2cncn2)c(C(F)(F)F)c1 (stereo not drawn) [Compound I-4]	≤ 20
CC(C)(C)C(O)(Cn1cncn1)c1ccc(C#CCCCO)cc1 (stereo not drawn) [I.C-1]	≤ 15
CCC(O)(Cn1cncn1)c1ccc(C#CC(F)(F)F)cc1Cl (stereo not drawn) [Compound I-39]	≤ 20
CCC(O)(Cn1cncn1)c1ccc(C#CCCCO)cc1Cl (stereo not drawn) [Compound I-27]	≤ 20
CC(C)CC#Cc1ccc(C(O)(Cn2cncn2)C2CC2)c(Cl)c1 (stereo not drawn) [Compound I-19]	≤ 20
CCCC#Cc1ccc(C(C)(O)Cn2cncn2)c(C(F)(F)F)c1 (stereo not drawn) [Compound I-5]	≤ 20
CCC(O)(Cn1cncn1)c1ccc(C#CC(C)O)cc1Cl (stereo not drawn) [Compound I-31]	≤ 20
CCCC#Cc1ccc(C(O)(CC)Cn2cncn2)c(Cl)c1 (stereo not drawn) [Compound I-32]	≤ 20
CCC(O)(C#Cc1ccc(C(O)(Cn2cncn2)C2CC2)c(Cl)c1)CC (stereo not drawn) [Compound I-25]	≤ 20
COC(C)(C)C#Cc1ccc(C(C)(O)Cn2cncn2)c(C(F)(F)F)c1 (stereo not drawn) [Compound I-12]	≤ 20
CCCC#Cc1ccc(C(O)(Cn2cncn2)C2CC2)c(Cl)c1 (stereo not drawn) [Compound I-17]	≤ 20
CCC(O)(Cn1cncn1)c1ccc(C#CCCCCl)cc1Cl (stereo not drawn) [Compound I-29]	≤ 20
CCCCC#Cc1ccc(C(C)(O)Cn2cncn2)c(C(F)(F)F)c1 (stereo not drawn) [Compound I-8]	≤ 20
CCCCC#Cc1ccc(C(O)(CC)Cn2cncn2)c(Cl)c1 (stereo not drawn) [Compound I-34]	≤ 20
COCC#Cc1ccc(C(O)(Cn2cncn2)C2CC2)c(Cl)c1 (stereo not drawn) [Compound I-16]	≤ 20
CC(O)(Cn1cncn1)c1ccc(C#CCOc2ccccc2)cc1C(F)(F)F (stereo not drawn) [Compound I-20]	≤ 20
OC(Cn1cncn1)(c1ccc(C#CC(F)(F)F)cc1Cl)C1CC1 (stereo not drawn) [Compound I-36]	≤ 20
OCC#Cc1ccc(C(O)(Cn2cncn2)C2CC2)c(Cl)c1 (stereo not drawn) [Compound I-14]	≤ 20
CC(C)CC#Cc1ccc(C(C)(O)Cn2cncn2)c(C(F)(F)F)c1 (stereo not drawn) [Compound I-7]	≤ 20
CC(O)(Cn1cncn1)c1ccc(C#CC(F)(F)F)cc1C(F)(F)F (stereo not drawn) [Compound I-22]	≤ 20
OC(Cn1cncn1)(c1ccc(C#CCl)cc1Cl)C1CC1 (stereo not drawn) [Compound I-35]	≤ 20
CC(C)OCC#Cc1ccc(C(C)(O)Cn2cncn2)c(C(F)(F)F)c1 (stereo not drawn) [Compound I-11]	≤ 20
CC(O)(Cn1cncn1)c1ccc(C#CCCCCl)cc1C(F)(F)F (stereo not drawn) [Compound I-2]	≤ 20
CC(O)C#Cc1ccc(C(O)(Cn2cncn2)C(C)(C)C)cc1 (mixture of isomers) [I.C-5]	≤ 15
CC(O)C#Cc1ccc(C(C)(O)Cn2cncn2)c(C(F)(F)F)c1 (stereo not drawn) [Compound I-26]	≤ 20

What follows are compounds tested on Pyrenophora teres (assay: Activity against net blotch Pyrenophora teres on barley in the microtiter test (Pyrnte)). Details: 31 ppm; Pyrenophora teres spore suspension; 18° C.; 405 nm, 7 days after inoculation.
Assay type: cell-based

SMILES	growth (relative growth of the pathogen vs active compound-free control = 100%) [%]
CCC(O)(Cn1cncn1)c1ccc(C#CCCCO)cc1Cl (stereo not drawn) [Compound I-27]	≤ 15
CC(C)CC#Cc1ccc(C(O)(Cn2cncn2)C2CC2)c(Cl)c1 (stereo not drawn) [Compound I-19]	≤ 15
CCCC#Cc1ccc(C(O)(CC)Cn2cncn2)c(Cl)c1 (stereo not drawn) [Compound I-32]	≤ 15
CCC(O)(C#Cc1ccc(C(O)(Cn2cncn2)C2CC2)c(Cl)c1)CC (stereo not drawn) [Compound I-25]	≤ 15
CCC(O)(Cn1cncn1)c1ccc(C#CC(C)(C)C)cc1Cl (stereo not drawn) [Compound I-33]	≤ 15
CCC(O)(Cn1cncn1)c1ccc(C#CCOc2ccccc2)cc1Cl (stereo not drawn) [Compound I-28]	≤ 15
CCCC#Cc1ccc(C(O)(Cn2cncn2)C2CC2)c(Cl)c1 (stereo not drawn) [Compound I-17]	≤ 15
CCC(O)(Cn1cncn1)c1ccc(C#CCCCCl)cc1Cl (stereo not drawn) [Compound I-29]	≤ 15
CCCCC#Cc1ccc(C(O)(CC)Cn2cncn2)c(Cl)c1 (stereo not drawn) [Compound I-34]	≤ 15
COCC#Cc1ccc(C(O)(Cn2cncn2)C2CC2)c(Cl)c1 (stereo not drawn) [Compound I-16]	≤ 15
CC(O)(Cn1cncn1)c1ccc(C#CCOc2ccccc2)cc1C(F)(F)F (stereo not drawn) [Compound I-20]	≤ 15
CC(C)(C)C#Cc1ccc(C(O)(Cn2cncn2)C2CC2)c(Cl)c1 (stereo not drawn) [Compound I-18]	≤ 15
CC(C)CC#Cc1ccc(C(C)(O)Cn2cncn2)c(C(F)(F)F)c1 (stereo not drawn) [Compound I-7]	≤ 15
OC(Cn1cncn1)(c1ccc(C#CCl)cc1Cl)C1CC1 (stereo not drawn) [Compound I-35]	≤ 15

Each compound was assayed on Botrytis cinerea (assay: Activity against the grey mold Botrytis cinerea in the microtiterplate test (Botrci)). Details: 31 ppm; Botrytis cinerea spore suspension; 18° C.; 405 nm, 7 days after inoculation.
Assay type: cell-based

SMILES	growth (relative growth of the pathogen vs active compound-free control = 100%) [%]
OC(Cn1cncn1)(c1ccc(C#CBr)cc1Cl)C1CC1 (stereo not drawn) [Compound I-23]	≤ 18
COCC#Cc1ccc(C(C)(O)Cn2cncn2)c(C(F)(F)F)c1 (stereo not drawn) [Compound I-4]	≤ 18
CC(C)(C)C(O)(Cn1cncn1)c1ccc(C#CCCCO)cc1 (stereo not drawn) [I.C-1]	≤ 13
CCC(O)(Cn1cncn1)c1ccc(C#CC(F)(F)F)cc1Cl (stereo not drawn) [Compound I-39]	≤ 18
CCC(O)(Cn1cncn1)c1ccc(C#CCCCO)cc1Cl (stereo not drawn) [Compound I-27]	≤ 18
CC(C)CC#Cc1ccc(C(O)(Cn2cncn2)C2CC2)c(Cl)c1 (stereo not drawn) [Compound I-19]	≤ 18
CCCC#Cc1ccc(C(C)(O)Cn2cncn2)c(C(F)(F)F)c1 (stereo not drawn) [Compound I-5]	≤ 18
CCC(O)(Cn1cncn1)c1ccc(C#CC(C)O)cc1Cl (stereo not drawn) [Compound I-31]	≤ 18
CCCC#Cc1ccc(C(O)(CC)Cn2cncn2)c(Cl)c1 (stereo not drawn) [Compound I-32]	≤ 18
CCC(O)(C#Cc1ccc(C(O)(Cn2cncn2)C2CC2)c(Cl)c1)CC (stereo not drawn) [Compound I-25]	≤ 18
COC(C)(C)C#Cc1ccc(C(C)(O)Cn2cncn2)c(C(F)(F)F)c1 (stereo not drawn) [Compound I-12]	≤ 18
CCC(O)(Cn1cncn1)c1ccc(C#CC(C)(C)C)cc1Cl (stereo not drawn) [Compound I-33]	≤ 18
CCC(O)(Cn1cncn1)c1ccc(C#CCOc2ccccc2)cc1Cl (stereo not drawn) [Compound I-28]	≤ 18
CCCC#Cc1ccc(C(O)(Cn2cncn2)C2CC2)c(Cl)c1 (stereo not drawn) [Compound I-17]	≤ 18
CCC(O)(Cn1cncn1)c1ccc(C#CCCCCl)cc1Cl (stereo not drawn) [Compound I-29]	≤ 18
CCCCC#Cc1ccc(C(C)(O)Cn2cncn2)c(C(F)(F)F)c1 (stereo not drawn) [Compound I-8]	≤ 18
CCCCC#Cc1ccc(C(O)(CC)Cn2cncn2)c(Cl)c1 (stereo not drawn) [Compound I-34]	≤ 18
COCC#Cc1ccc(C(O)(Cn2cncn2)C2CC2)c(Cl)c1 (stereo not drawn) [Compound I-16]	≤ 18
CC(O)(Cn1cncn1)c1ccc(C#CCOc2ccccc2)cc1C(F)(F)F (stereo not drawn) [Compound I-20]	≤ 18
OC(Cn1cncn1)(c1ccc(C#CC(F)(F)F)cc1Cl)C1CC1 (stereo not drawn) [Compound I-36]	≤ 18
CC(C)(C)C#Cc1ccc(C(O)(Cn2cncn2)C2CC2)c(Cl)c1 (stereo not drawn) [Compound I-18]	≤ 18
CC(C)CC#Cc1ccc(C(C)(O)Cn2cncn2)c(C(F)(F)F)c1 (stereo not drawn) [Compound I-7]	≤ 18
CC(O)(Cn1cncn1)c1ccc(C#CC(F)(F)F)cc1C(F)(F)F (stereo not drawn) [Compound I-22]	≤ 18
OC(Cn1cncn1)(c1ccc(C#CCl)cc1Cl)C1CC1 (stereo not drawn) [Compound I-35]	≤ 18
CC(C)OCC#Cc1ccc(C(C)(O)Cn2cncn2)c(C(F)(F)F)c1 (stereo not drawn) [Compound I-11]	≤ 18
CC(O)(Cn1cncn1)c1ccc(C#CCCCCl)cc1C(F)(F)F (stereo not drawn) [Compound I-2]	≤ 18
CC(O)C#Cc1ccc(C(C)(O)Cn2cncn2)c(C(F)(F)F)c1 (stereo not drawn) [Compound I-26]	≤ 18

Each compound was assayed on Alternaria solani (assay: Activity against early blight caused by Alternaria solani (Alteso), microtiter test). Details: 31 ppm; Alternaria solani spore suspension; 18° C.; 405 nm, 7 days after inoculation.
Assay type: cell-based

SMILES	growth (relative growth of the pathogen vs active compound-free control = 100%) [%]
OC(Cn1cncn1)(c1ccc(C#CBr)cc1Cl)C1CC1 (stereo not drawn) [Compound I-23]	≤ 7
COCC#Cc1ccc(C(C)(O)Cn2cncn2)c(C(F)(F)F)c1 (stereo not drawn) [Compound I-4]	≤ 7
CC(C)(C)C(O)(Cn1cncn1)c1ccc(C#CCCCO)cc1 (stereo not drawn) [I.C-1]	≤ 13
CCC(O)(Cn1cncn1)c1ccc(C#CCCCO)cc1Cl (stereo not drawn) [Compound I-27]	≤ 7
CC(C)CC#Cc1ccc(C(O)(Cn2cncn2)C2CC2)c(Cl)c1 (stereo not drawn) [Compound I-19]	≤ 7
CCCC#Cc1ccc(C(C)(O)Cn2cncn2)c(C(F)(F)F)c1 (stereo not drawn) [Compound I-5]	≤ 7
CCC(O)(Cn1cncn1)c1ccc(C#CC(C)O)cc1Cl (stereo not drawn) [Compound I-31]	≤ 7
CCCC#Cc1ccc(C(O)(CC)Cn2cncn2)c(Cl)c1 (stereo not drawn) [Compound I-32]	≤ 7
CCC(O)(C#Cc1ccc(C(O)(Cn2cncn2)C2CC2)c(Cl)c1)CC (stereo not drawn) [Compound I-25]	≤ 7
COC(C)(C)C#Cc1ccc(C(C)(O)Cn2cncn2)c(C(F)(F)F)c1 (stereo not drawn) [Compound I-12]	≤ 7
CCC(O)(Cn1cncn1)c1ccc(C#CC(C)(C)C)cc1Cl (stereo not drawn) [Compound I-33]	≤ 7
CCC(O)(Cn1cncn1)c1ccc(C#CCOc2ccccc2)cc1Cl (stereo not drawn) [Compound I-28]	≤ 7
CCCC#Cc1ccc(C(O)(Cn2cncn2)C2CC2)c(Cl)c1 (stereo not drawn) [Compound I-17]	≤ 7
CCC(O)(Cn1cncn1)c1ccc(C#CCCCCl)cc1Cl (stereo not drawn) [Compound I-29]	≤ 7
CCCCC#Cc1ccc(C(C)(O)Cn2cncn2)c(C(F)(F)F)c1 (stereo not drawn) [Compound I-8]	≤ 7
CCCCC#Cc1ccc(C(O)(CC)Cn2cncn2)c(Cl)c1 (stereo not drawn) [Compound I-34]	≤ 7
COCC#Cc1ccc(C(O)(Cn2cncn2)C2CC2)c(Cl)c1 (stereo not drawn) [Compound I-16]	≤ 7
CC(O)(Cn1cncn1)c1ccc(C#CCOc2ccccc2)cc1C(F)(F)F (stereo not drawn) [Compound I-20]	≤ 7
CC(C)(C)C#Cc1ccc(C(O)(Cn2cncn2)C2CC2)c(Cl)c1 (stereo not drawn) [Compound I-18]	≤ 7
OCC#Cc1ccc(C(O)(Cn2cncn2)C2CC2)c(Cl)c1 (stereo not drawn) [Compound I-14]	≤ 7
CC(C)CC#Cc1ccc(C(C)(O)Cn2cncn2)c(C(F)(F)F)c1 (stereo not drawn) [Compound I-7]	≤ 7
OC(Cn1cncn1)(c1ccc(C#CCl)cc1Cl)C1CC1 (stereo not drawn) [Compound I-35]	≤ 7
CC(C)OCC#Cc1ccc(C(C)(O)Cn2cncn2)c(C(F)(F)F)c1 (stereo not drawn) [Compound I-11]	≤ 7
CC(O)(Cn1cncn1)c1ccc(C#CCCCCl)cc1C(F)(F)F (stereo not drawn) [Compound I-2]	≤ 7
CC(O)C#Cc1ccc(C(O)(Cn2cncn2)C(C)(C)C)cc1 (mixture of isomers) [I.C-5]	≤ 13
CCC(O)(Cn1cncn1)c1ccc(C#CCO)cc1Cl (stereo not drawn) [Compound I-30]	≤ 7
